Data on 1 substance can be found in PMC10116723.

Protein sequences, listed by entry. Tags and fused reporters are not part of them.
UniProt Q14457: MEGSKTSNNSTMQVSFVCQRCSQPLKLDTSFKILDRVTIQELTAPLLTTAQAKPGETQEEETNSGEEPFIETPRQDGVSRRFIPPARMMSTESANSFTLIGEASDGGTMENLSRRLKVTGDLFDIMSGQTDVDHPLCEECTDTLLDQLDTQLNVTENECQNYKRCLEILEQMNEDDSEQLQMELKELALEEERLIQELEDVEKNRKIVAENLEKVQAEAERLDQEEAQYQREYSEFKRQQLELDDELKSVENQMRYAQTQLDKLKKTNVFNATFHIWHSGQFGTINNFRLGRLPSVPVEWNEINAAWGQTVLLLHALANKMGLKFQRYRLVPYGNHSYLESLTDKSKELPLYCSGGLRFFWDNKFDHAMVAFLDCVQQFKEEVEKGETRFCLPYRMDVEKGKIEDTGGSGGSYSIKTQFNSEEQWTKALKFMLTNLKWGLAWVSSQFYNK
UniProt Q86WV6: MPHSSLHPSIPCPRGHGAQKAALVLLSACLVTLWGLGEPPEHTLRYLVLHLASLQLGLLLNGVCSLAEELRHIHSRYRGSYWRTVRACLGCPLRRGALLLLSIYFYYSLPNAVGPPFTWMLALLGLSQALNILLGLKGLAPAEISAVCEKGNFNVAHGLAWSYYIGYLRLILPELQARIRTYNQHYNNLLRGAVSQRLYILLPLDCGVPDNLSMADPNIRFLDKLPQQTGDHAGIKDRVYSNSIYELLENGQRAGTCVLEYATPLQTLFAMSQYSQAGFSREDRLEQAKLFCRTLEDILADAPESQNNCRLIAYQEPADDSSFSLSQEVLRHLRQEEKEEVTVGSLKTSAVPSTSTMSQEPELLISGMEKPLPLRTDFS

The experiment has as its target Beclin-1, endogenous (human (endogenous in HepaRG or Huh7 derived cells)) (UniProt Q14457). In words: affinity purification with mass spectrometry; HepaRG transfected with HA-STING, 24 h later rhIL-33 (100 ng/mL) for 12 h; HA-STING precipitated by Beclin-1 purified and analysed by LC-MS/MS.

These are yes or no findings as the source states them, for the method shown. Binding seen in cells or lysates may run through a third protein. Here binding means that the protein was enriched with, or labelled near, the bait; the list need not be complete.

“HA-tagged STING (stimulator of interferon response cGAMP interactor 1) (from UniProt Q86WV6 1-379)”: the binding entry is listed as “binds”.
